Source: PMC11165742
Results are given in words; binding and its absence hold for the method and conditions named. In cells and extracts the contact can be indirect. Some results given as binding are weak or reduced against the parent protein; the word gives no strength.

The chains behind the UniProt entries cited, without tags or fusion partners.
UniProt D2IE28: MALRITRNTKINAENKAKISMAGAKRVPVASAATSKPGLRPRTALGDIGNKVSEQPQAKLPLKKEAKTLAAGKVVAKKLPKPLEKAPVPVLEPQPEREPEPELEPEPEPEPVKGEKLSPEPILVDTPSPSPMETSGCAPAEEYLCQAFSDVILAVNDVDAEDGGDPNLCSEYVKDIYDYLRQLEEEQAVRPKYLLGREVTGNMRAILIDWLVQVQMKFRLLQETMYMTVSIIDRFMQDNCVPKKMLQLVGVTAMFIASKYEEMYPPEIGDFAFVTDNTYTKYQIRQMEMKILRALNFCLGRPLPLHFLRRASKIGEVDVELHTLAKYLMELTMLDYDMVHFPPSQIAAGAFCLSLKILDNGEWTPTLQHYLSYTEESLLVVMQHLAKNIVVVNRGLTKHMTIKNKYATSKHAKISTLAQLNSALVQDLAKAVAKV
UniProt Q6SEG5: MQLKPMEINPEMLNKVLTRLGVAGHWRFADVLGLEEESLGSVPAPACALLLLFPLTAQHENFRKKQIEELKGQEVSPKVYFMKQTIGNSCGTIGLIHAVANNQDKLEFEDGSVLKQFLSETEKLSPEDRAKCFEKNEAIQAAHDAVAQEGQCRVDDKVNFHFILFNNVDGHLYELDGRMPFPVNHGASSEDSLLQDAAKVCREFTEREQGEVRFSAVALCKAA

Tests used:
[1] = target: cyclin B1 (CCNB1) (pig (endogenous in porcine granulosa cells)) (UniProt D2IE28); test: co-IP; porcine GC lysate (IP cell lysate buffer) with anti-UCHL1, anti-CCNB1 or IgG overnight at 4 °C, protein G magnetic beads 2 h, washed three times, immunoblot; both directions
[2] = target: ubiquitin carboxyl-terminal hydrolase 1 (UCHL1) (pig (endogenous in porcine granulosa cells)) (UniProt Q6SEG5); test: as above

ubiquitin carboxyl-terminal hydrolase 1 (UCHL1) (from UniProt Q6SEG5 1-223) (enzyme)
binding [1]: binds

cyclin B1 (CCNB1) (from UniProt D2IE28 1-435)
binding [2]: binds
